What all share (test): affinity purification with mass spectrometry; tandem affinity purification by the FLAG and His epitopes of ELF3-HFC from extracts of 10-day-old transgenic Arabidopsis seedlings (elf3-2 background), 12L:12D, harvested at ZT12; two replicates for each line
Experiment [1] addresses T1, AtELF3-HFC (Arabidopsis EARLY FLOWERING 3 with C-terminal His6-3xFlag tag) (Arabidopsis thaliana) (UniProt O82804).
T1 sequence: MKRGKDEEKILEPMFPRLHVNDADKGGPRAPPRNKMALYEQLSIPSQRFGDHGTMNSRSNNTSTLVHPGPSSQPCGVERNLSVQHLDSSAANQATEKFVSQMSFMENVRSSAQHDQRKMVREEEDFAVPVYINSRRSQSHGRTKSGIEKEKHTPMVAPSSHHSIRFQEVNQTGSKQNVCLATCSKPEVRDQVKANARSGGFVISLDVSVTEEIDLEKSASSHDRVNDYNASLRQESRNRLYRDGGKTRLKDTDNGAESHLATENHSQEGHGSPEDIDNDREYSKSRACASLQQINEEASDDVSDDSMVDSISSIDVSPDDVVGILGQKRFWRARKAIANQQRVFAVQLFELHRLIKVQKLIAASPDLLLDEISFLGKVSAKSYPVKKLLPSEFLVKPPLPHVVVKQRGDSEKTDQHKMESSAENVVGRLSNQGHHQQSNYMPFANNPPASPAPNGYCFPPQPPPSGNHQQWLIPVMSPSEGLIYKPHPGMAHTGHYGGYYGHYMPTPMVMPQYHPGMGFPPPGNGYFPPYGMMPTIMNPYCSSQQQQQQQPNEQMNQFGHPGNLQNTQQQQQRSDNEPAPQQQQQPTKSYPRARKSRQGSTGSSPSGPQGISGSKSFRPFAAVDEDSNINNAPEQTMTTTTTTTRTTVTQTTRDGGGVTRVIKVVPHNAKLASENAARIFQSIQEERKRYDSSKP

Experiment [2] concerns the target SvELF3-HFC (Setaria viridis ELF3a with C-terminal His6-3xFlag tag) (Setaria viridis).
For experiment [3], the target named is BdELF3-HFC (Brachypodium distachyon ELF3 with C-terminal His6-3xFlag tag) (Brachypodium distachyon).
In experiment [4] the target is T2, AtELF3-HFC (Arabidopsis EARLY FLOWERING 3 with C-terminal His6-3xFlag tag) (Arabidopsis thaliana), O82804.
T2 chain: T1 sequence
The following applies: remark: other sources report otherwise.

Results are given in words; binding and its absence hold for the method and conditions named. Binding seen in cells or lysates may run through a third protein. Here binding means that the protein was enriched with, or labelled near, the bait; the list need not be complete. For some of these results: Tags and fused reporters may be left off the sequences shown.

B1: LUX ARRHYTHMO, endogenous (protein, UniProt Q9SNB4 1-323)
chain: MGEEVQMSDYDVSGDGDRVSEWEMGLPSDEDLASLSYSLIPPNLAMAFSITPERSRTIQDVNRASETTLSSLRGGSSGPNTSSSNNNVEEEDRVGSSSPGSDSKKQKTSNGDGDDGGGVDPDSAMAAEEGDSGTEDLSGKTLKRPRLVWTPQLHKRFVDVVAHLGIKNAVPKTIMQLMNVEGLTRENVASHLQKYRLYLKRMQGLTNEGPSASDKLFSSTPVPPQSFQDIGGGGGSSGNVGVPIPGAYGTQQMMQMPVYAHHMGMQGYHHQNHNHDPYHQNHRHHHGAGGNGAFESNPYMMQQNKFGSMASYPSVGGGSANEN
Turning to B1, the binding entry in experiment [1], in experiment [2] and in experiment [3] was “binds” each time.

B2: ELF4-L2 (protein, UniProt Q94BS8 1-119)
chain: MESRMEGDVYSGFGERYQMDGKLLQNFQKSFVQVQDILDQNRLLINEINQNHESKQADHLGRNVGLIRELNNNIRTVASLYGDLSHSFARSVDASSEGESTGTLKSDGKANNQKRFRSG
Turning to B2, the binding result in experiment [1], in experiment [2] and in experiment [3] was “binds” throughout.

B3: SPA1, Q9SYX2 1-1029 (protein)
chain: MPVMERVAEETVATNNIQLKARVDDVPCNKLDARHNDMVIQSETANSDCPGSSAHRNVDLTKPPPPEEAAGAKLSVEELTLGNYRIVQGSNNTNVDSPRAGKFEHLYRLARGSAFRAGDGDLDSQPRDMDQMLSRIRQQLAGAPSERQNLKPFMSRRSDQNLEAFSERLRAAGENSIMNAPALISEGVQMKTPVSSSNFSQLLLKRAMKGKGVVGKNQETPPEFVSDQDLGSKEKKLDISKSPTPHDVLPLKSSPKGNGMVSHGDGNHSKSSIGISLREFLRSSYAKREKRHGLCLFRQLVELVDSAHSKRLFLLDLRPSLFTLVPSKKLRYIGNFGKNDLESDVDEDLNRRRPVVEESSSGGRDSKKRKMDLHLNSPGNQLQATSTGRPFKRKSPVIDLNMVDARNPDSCELQQQDYIKNLSVSSVSRKQSMSTWLEEQWYTCPEEINGEDIGEKSNIYALGVLLFELLCHCESGEMHAAMMADLRHRILPPTFLSKYPKEAGFCLWLLHPEPSSRPSARDILKSELICEDDSVKSTAAAEEISELLLHFLSSLEVQKKKKASKLLQDIQTLEDDIKEAERRYSSNVSLVRSHGAIEKRVQSSPLDEHCTTSSALFVPTANTDRLMSNIRQLEDAYFFMRSQINLSSSAATARSDKTLKDRDRCSENQNENQDMSTKGKSSDQLEVFFEGLCKFARYSKFETCGTIRSGDLLNSASVVCSLSFDPDEEHIAAAGISKKIKIFDFNAFMNESVGVHYPLVEMVNKSKLSCVCWNSYIKNYLASTDYDGVVQIWDAGTGQGFSQYTEHQKRAWSVDFSPSDPTKFVSGSDDCSVKLWSINEKRSLGTIWSPANVCCVQFSSYSNHLLAFGSADYKVYCYDLRYVKTPWCTLAGHEKAVSYVKFMDSETIVSASTDNSLKLWNLNKTNSSGLSPGACSLTYKGHTNQKNFVGLSVLDGYIACGSETNEVYSYYKSLPMPMTSYKFGSVDPISGNEYFDDNGQFVSSVCWRKKSNMLVAANSTGNMKLLKLV
As for B3, the binding result in experiment [4] was “binds”.

These data come from publication PMC6508535.
